These are yes or no findings as the source states them, for the method shown. Binding seen in cells or lysates may run through a third protein. Binding can be weak; no strength is given.
Molecular target: Kastor-(C)FLAG (mouse) (UniProt Q8C5Y2)
Experiment: co-IP; lysates of HEK293T cells transiently expressing Kastor-(C)FLAG or Polluks-(C)FLAG; immunoprecipitation with anti-FLAG M2 affinity gel, washes with 0.1% Triton X-100, elution with FLAG peptide; immunoblot for VDAC isoforms

The chains behind the UniProt entries cited, without tags or fusion partners. Where a name states a change or a piece, a line headed by the entry shows the natural chain unless it says otherwise.
UniProt Q8C5Y2: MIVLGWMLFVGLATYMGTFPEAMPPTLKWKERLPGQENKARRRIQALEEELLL
UniProt P21796: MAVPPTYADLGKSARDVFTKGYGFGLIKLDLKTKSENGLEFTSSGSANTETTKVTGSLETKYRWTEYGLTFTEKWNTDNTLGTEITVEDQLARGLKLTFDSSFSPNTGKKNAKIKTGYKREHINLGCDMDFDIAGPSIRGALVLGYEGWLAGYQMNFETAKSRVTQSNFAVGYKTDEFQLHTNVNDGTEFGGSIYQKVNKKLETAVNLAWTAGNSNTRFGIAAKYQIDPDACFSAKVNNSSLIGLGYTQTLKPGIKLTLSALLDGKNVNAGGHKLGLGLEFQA

binding: binds
Substance: VDAC1 (voltage-dependent anion channel 1), endogenous in HEK293T cells (from UniProt P21796 1-283)

Reference: PMC8885739
